Experimental data taken from PubChem BioAssay AID720715 (Broad Institute, 2013).
These results got no clear call from the source, so the numbers are uncertain. How the calls were made is not given here.

Experiment: HEK293 cell cytotoxicity, dose response, cytotoxicity control, plate reader, dry powder, set 2 (AID 720715)
Conditions: at 26 µM (top of the series)

## CN(C)S(=O)(=O)c1cccc(NC(=O)c2cccc(S(=O)(=O)N3CCc4ccccc43)c2)c1
  activity change, negative = cytotoxicity: inconclusive: -58.7%
